According to publication doi:10.1101/2024.10.10.617623:
No constants are given. Whether binding was seen depends on the method and setting. Some binding calls cover weakened binding; strength is not graded here.

Biological target: T1, Streptococcus pyogenes type II-A Cas2 (Streptococcus pyogenes) (UniProt Q99ZW0)
T1 sequence: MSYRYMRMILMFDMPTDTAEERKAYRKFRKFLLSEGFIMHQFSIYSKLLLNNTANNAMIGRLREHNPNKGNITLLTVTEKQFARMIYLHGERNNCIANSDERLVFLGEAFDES
Experiment: SEC

binding: binds
B1: Streptococcus pyogenes type II-A Cas1 R5K (enzyme, UniProt Q99ZW1 1-289)
chain: MAGWKTVVVNTHSKLSYKNNHLIFKDAYKTELIHLSEIDILLLETTDIVLSTMLVKRLVDENVLVIFCDDKRLPTAMLMPFYGRHDSSLQLGKQMSWSETVKSQVWTTIIAQKILNQSCYLGACSYFEKSQSIMDLYHGLENFDPSNREGHAARIYFNTLFGNDFSRDLEHPINAGLDYGYTLLLSMFAREVVVSGCMTQFGLKHANQFNQFNFASDIMEPFRPLVDKIVYENRNQPFPKIKRELFTLFSDTFSYNGKEMYLTNIISDYTKKVVKALNNEGKGVPEFRI
